HELM strings list residues between dots; [ac] is acetyl, [am] amide, other brackets name non-standard units.
Assay: general procedure: Boc solid-phase peptide synthesis; -O-CH2-phi-resin; diphenylphosphoryl azide (cyclisation)
Conditions: whole synthesis, scale 75 mmole

Substance: PEPTIDE1{P.[dF].P.[dF].P.[dF]}$PEPTIDE1,PEPTIDE1,1:R1-6:R2$$$V2.0
- isolated mass (run 1): 32.8 grams
- isolated mass (run 2): 6.24 g
